The values below come from publication PMC7052886.

By UniProt entry, the sequences of proteins in these tests, tags left out.
UniProt Q9NQU5: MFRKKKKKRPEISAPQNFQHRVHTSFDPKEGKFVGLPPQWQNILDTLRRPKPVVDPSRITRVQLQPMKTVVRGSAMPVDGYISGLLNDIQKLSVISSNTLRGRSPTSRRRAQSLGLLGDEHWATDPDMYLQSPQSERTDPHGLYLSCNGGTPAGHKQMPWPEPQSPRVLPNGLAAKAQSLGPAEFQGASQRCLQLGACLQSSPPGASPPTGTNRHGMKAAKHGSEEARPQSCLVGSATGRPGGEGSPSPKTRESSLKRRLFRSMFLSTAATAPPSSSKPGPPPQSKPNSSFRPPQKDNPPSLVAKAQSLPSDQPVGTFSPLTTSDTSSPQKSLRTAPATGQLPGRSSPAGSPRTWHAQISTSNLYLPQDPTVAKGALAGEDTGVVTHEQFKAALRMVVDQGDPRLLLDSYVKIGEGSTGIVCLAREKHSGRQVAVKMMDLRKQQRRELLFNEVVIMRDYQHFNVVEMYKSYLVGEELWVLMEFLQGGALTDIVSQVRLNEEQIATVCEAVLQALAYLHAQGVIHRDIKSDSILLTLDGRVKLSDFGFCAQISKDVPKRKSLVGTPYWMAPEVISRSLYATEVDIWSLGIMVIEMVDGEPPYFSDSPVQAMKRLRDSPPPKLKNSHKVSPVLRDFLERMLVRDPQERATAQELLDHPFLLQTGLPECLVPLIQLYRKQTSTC

Assay [1] concerns the target T1, endogenous SIRT4 (human (endogenous in CWR22RV1)) (UniProt Q9Y6E7).
T1 sequence: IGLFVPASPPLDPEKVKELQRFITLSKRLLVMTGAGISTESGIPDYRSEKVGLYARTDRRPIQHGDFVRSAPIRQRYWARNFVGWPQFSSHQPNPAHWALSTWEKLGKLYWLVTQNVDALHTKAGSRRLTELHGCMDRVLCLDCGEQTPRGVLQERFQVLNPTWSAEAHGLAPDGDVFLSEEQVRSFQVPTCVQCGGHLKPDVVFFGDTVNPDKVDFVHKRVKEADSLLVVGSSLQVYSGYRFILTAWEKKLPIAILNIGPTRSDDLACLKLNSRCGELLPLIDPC
Nature of the assay: co-IP; endogenous proteins in CWR22RV1 cells; 2 mg lysate, indicated antibody and protein A-Sepharose overnight at 4°C; western blot.

Assay [2] concerns the target GFP-PAK6 (p21-activated kinase 6, wild type) (UniProt Q9NQU5). In words: co-IP; HEK293 cells transiently co-transfected with the tagged constructs; 2 mg lysate, indicated antibody and protein A-Sepharose overnight at 4°C; western blot. On the technique in general: In western blotting, separated proteins are transferred to a membrane and probed.

Results are given in words; binding and its absence hold for the method and conditions named. Binding seen in cells or lysates may run through a third protein. Some entries that bind do so weakly or less than the wild type. For some assays here: Sequences can lack the tags named with a protein.

Regarding “endogenous PAK6 (p21-activated kinase 6) (from UniProt Q9NQU5 1-681)”, the binding result in assay [1] is on record as “binds”.

B1: Flag-tagged SIRT4 (protein, UniProt Q9Y6E7 29-314)
chain: IGLFVPASPPLDPEKVKELQRFITLSKRLLVMTGAGISTESGIPDYRSEKVGLYARTDRRPIQHGDFVRSAPIRQRYWARNFVGWPQFSSHQPNPAHWALSTWEKLGKLYWLVTQNVDALHTKAGSRRLTELHGCMDRVLCLDCGEQTPRGVLQERFQVLNPTWSAEAHGLAPDGDVFLSEEQVRSFQVPTCVQCGGHLKPDVVFFGDTVNPDKVDFVHKRVKEADSLLVVGSSLQVYSGYRFILTAWEKKLPIAILNIGPTRSDDLACLKLNSRCGELLPLIDPC
As to B1, in assay [2], the binding result was “binds”.
